Reference: the supplement of paper PMC10849652
This is one part of the list.

The chains behind the UniProt entries cited, without tags or fusion partners. Where a name states a change or a piece, a line headed by the entry shows the natural chain unless it says otherwise.
UniProt P25788: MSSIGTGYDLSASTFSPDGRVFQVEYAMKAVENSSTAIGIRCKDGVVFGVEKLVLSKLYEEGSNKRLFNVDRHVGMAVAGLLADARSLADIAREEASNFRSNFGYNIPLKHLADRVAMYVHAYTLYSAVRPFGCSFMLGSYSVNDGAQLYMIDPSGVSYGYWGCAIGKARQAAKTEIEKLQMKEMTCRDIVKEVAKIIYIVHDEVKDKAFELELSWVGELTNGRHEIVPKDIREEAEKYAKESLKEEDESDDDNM
UniProt P28070, whole entry, looked up: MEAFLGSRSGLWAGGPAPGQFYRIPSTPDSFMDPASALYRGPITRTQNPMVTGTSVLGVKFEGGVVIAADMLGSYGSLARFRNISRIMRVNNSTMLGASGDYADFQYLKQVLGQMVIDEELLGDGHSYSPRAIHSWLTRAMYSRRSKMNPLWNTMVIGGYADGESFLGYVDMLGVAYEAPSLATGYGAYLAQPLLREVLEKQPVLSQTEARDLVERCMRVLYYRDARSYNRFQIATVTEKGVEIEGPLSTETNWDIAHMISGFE
UniProt Q8WUK0: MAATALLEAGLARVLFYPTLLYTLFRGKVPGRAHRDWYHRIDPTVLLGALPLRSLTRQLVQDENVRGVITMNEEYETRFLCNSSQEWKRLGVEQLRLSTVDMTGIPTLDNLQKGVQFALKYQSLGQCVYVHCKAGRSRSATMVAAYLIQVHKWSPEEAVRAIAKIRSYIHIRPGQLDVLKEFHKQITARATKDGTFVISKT
UniProt Q96PU8: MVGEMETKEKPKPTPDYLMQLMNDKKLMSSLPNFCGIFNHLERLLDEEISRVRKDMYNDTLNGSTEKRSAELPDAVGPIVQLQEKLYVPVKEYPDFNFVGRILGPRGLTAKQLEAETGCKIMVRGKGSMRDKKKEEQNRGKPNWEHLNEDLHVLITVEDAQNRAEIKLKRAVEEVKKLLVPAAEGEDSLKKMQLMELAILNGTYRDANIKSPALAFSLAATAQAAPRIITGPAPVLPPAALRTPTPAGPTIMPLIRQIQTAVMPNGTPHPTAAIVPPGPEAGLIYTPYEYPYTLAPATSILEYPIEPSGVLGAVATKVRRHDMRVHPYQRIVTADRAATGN
UniProt Q99460, whole entry, looked up: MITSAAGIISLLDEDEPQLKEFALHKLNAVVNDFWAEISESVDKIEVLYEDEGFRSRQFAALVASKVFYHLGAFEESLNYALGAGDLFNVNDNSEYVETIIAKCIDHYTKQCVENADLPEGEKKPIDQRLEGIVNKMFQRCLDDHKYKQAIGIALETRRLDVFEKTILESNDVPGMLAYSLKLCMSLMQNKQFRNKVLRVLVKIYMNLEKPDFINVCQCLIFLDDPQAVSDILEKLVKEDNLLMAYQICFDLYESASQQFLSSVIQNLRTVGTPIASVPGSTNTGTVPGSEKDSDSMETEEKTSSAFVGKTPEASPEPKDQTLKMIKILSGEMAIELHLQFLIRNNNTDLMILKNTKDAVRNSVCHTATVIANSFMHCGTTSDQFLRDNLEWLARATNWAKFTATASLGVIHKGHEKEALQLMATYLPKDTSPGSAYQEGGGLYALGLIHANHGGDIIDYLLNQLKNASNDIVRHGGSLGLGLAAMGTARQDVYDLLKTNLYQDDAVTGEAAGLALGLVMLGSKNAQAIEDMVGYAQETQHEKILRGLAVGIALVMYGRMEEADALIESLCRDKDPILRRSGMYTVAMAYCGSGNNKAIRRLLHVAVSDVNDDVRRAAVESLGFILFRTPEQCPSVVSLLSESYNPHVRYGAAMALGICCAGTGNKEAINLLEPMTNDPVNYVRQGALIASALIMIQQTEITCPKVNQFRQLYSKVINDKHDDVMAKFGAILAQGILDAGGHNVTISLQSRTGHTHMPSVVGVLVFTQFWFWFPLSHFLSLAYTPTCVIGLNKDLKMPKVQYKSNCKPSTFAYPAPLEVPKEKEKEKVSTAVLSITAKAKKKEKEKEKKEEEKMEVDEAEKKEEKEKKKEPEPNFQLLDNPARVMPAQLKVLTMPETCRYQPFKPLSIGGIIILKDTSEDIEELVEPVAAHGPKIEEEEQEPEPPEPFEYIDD
UniProt O00232: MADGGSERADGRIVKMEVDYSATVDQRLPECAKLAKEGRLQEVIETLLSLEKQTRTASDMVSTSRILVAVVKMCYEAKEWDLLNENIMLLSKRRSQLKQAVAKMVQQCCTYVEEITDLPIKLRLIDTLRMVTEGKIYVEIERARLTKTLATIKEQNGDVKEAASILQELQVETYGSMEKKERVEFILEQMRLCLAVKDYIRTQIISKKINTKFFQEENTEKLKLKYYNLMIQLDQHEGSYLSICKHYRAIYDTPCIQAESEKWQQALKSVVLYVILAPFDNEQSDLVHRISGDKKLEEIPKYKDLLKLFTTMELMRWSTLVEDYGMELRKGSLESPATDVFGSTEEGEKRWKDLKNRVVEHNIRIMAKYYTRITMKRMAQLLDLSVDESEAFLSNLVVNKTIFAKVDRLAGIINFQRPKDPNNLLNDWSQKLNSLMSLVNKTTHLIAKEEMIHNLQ
UniProt P62191: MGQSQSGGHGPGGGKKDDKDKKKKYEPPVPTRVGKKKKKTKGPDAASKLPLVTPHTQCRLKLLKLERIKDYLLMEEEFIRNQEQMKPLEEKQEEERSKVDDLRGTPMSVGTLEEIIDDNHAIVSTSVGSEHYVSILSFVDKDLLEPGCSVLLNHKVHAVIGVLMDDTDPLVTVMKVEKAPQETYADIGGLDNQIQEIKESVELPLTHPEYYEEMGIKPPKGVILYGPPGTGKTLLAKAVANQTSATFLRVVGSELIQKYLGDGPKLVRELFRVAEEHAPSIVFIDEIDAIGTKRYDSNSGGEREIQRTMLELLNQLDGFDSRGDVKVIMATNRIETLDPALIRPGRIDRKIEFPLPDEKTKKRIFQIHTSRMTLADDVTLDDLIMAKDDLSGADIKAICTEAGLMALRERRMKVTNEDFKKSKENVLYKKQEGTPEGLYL
UniProt Q12974: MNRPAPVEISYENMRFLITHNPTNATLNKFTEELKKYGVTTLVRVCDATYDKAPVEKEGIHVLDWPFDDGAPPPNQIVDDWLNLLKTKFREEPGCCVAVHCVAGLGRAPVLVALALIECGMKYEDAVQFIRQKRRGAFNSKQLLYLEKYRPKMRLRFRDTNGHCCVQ
UniProt Q9Y3E5: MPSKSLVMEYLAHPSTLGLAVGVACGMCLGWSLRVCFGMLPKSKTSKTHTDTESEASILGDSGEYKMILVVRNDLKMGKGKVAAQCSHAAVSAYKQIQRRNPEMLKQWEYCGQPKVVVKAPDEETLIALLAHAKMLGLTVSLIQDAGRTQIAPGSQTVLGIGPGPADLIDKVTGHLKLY
UniProt P35998: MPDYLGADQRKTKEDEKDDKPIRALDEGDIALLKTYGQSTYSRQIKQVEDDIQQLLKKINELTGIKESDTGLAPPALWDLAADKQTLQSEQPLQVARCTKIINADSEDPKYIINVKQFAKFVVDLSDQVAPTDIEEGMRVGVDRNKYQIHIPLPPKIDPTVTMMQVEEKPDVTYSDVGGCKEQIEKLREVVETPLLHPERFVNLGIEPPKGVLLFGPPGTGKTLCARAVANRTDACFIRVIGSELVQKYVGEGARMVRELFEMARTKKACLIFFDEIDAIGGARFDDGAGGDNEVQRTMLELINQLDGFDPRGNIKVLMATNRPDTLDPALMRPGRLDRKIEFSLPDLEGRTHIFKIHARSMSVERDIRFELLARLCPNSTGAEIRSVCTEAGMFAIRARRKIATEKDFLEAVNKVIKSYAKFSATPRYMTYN
UniProt Q9ULZ3, whole entry, looked up: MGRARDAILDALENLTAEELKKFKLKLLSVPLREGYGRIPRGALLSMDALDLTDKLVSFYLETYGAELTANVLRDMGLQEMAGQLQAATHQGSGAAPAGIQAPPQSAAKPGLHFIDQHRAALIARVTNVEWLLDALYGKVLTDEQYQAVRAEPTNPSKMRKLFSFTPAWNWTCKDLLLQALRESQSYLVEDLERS
UniProt Q86Y79: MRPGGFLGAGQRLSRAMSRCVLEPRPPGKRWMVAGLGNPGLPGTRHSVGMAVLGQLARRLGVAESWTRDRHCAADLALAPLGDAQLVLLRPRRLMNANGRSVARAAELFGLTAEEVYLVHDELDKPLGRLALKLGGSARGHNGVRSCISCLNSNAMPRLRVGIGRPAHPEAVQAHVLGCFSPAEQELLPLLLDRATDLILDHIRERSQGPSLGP
UniProt P32322: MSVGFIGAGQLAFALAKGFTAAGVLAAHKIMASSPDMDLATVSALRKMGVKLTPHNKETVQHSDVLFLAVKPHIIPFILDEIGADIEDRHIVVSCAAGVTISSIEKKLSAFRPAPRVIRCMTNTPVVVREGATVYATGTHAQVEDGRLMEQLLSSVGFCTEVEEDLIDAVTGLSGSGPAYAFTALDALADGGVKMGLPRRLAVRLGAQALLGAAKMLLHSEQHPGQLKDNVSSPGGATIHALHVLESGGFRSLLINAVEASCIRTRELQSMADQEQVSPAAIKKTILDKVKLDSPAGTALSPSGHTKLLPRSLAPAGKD
UniProt P60484: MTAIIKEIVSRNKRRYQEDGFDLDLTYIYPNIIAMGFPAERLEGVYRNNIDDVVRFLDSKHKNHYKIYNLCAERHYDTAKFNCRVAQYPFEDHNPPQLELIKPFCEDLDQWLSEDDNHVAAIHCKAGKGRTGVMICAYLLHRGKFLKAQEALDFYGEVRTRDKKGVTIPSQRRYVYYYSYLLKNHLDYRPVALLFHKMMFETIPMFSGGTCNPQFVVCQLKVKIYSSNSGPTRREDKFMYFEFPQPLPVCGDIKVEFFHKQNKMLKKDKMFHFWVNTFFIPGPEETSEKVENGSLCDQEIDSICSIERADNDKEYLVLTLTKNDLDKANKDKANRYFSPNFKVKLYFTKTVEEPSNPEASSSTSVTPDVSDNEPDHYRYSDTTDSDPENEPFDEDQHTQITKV
UniProt P43115: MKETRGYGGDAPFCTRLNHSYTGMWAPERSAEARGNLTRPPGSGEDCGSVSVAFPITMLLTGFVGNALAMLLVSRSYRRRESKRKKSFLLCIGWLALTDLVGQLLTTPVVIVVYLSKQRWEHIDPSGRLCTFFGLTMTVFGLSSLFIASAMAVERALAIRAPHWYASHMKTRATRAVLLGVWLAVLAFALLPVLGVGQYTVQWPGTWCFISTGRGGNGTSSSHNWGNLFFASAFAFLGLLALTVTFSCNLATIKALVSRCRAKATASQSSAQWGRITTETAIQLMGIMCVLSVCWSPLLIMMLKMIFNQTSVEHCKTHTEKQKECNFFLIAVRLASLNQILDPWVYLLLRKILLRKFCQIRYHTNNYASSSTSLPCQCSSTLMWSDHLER
UniProt P43378: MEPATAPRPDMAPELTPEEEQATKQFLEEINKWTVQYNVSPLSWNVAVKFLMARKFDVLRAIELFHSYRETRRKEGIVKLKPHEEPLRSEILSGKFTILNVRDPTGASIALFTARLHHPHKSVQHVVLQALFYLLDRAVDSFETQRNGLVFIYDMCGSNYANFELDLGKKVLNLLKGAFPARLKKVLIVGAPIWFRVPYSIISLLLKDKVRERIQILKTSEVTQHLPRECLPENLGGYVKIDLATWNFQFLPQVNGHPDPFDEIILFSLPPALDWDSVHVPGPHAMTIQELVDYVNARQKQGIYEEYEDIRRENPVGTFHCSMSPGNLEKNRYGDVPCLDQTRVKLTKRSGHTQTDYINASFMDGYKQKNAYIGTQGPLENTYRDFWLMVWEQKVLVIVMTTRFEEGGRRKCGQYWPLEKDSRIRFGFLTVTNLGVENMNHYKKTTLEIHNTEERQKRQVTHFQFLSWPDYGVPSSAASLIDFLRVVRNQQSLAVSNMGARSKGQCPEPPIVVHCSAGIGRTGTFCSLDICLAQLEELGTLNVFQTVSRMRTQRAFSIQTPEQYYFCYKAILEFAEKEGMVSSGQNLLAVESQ
UniProt Q7Z5L2: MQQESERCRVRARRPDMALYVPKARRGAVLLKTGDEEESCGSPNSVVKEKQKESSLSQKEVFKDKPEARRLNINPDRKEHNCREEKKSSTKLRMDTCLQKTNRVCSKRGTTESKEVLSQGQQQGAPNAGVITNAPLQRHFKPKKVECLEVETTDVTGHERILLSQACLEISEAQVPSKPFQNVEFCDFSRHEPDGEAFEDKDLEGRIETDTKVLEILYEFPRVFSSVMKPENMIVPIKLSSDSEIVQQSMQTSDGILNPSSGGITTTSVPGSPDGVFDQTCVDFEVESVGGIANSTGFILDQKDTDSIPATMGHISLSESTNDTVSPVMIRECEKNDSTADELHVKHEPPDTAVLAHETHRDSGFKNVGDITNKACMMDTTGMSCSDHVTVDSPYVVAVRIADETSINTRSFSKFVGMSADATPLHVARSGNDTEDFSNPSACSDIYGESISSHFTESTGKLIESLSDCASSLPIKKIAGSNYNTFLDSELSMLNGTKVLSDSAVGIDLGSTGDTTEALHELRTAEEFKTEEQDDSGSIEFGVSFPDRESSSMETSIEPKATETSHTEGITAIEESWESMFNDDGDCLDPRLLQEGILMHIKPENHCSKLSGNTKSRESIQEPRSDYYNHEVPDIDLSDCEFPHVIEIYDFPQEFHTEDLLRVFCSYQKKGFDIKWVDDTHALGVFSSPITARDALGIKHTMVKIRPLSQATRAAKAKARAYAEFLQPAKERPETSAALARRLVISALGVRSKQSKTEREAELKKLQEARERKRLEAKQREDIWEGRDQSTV

What was measured:
Experiment in all cases: log2 fold change, soluble protein after heating vs DMSO (PISA); higher = thermal stabilisation; K562 cells, 10 uM, 30 min; active = over 0.2 and 3.5 SD of the protein, either way, in both replicates (recomputed)
[1] = compound: CS(=O)(=O)c1ccc(-c2cnc(N)c(C(=O)Nc3ccccc3)n2)cc1
Summary of the method: (§1)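 Quantification of soluble protein used TMTpro 16plex LC-MS/MS, with channel sums equalised. Samples were the supernatant after 21,000xg for 90 min of pooled aliquots from K562 cells (2×10^6 cells/mL) treated with 10 μM compound for 30 min, heated for 3 min over 48°C-58°C, and extracted in PBS with 0.5% NP-40 at 4°C. Values, from duplicates, describe thermal stability against control samples on a log2 fold-change scale.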

crizotinib = compound: C[C@@H](Oc1cc(-c2cnn(C3CCNCC3)c2)cnc1N)c1c(Cl)ccc(F)c1Cl [crizotinib]
Summary of the method: as §1

[2] = compound: C[C@@H]1COCCN1C2=NC(=NC(=C2)C3(CC3)S(=O)(=O)C)C4=C5C=CNC5=CC=C4
Summary of the method: as §1

[3] = compound: C[C@H](C1=CC=C(C=C1)C(=O)NC2=C3C=CNC3=NC=C2)N
Summary of the method: as §1

gandotinib = compound: Cc1cc(Nc2cc(CN3CCOCC3)c3nc(C)c(Cc4ccc(Cl)cc4F)n3n2)n[nH]1 [gandotinib]
Summary of the method: as §1

[4] = compound: Cc1cc(SCc2sc(-c3ccc(C(F)(F)F)cc3)nc2C)ccc1OCC(=O)O
Summary of the method: as §1

doramapimod = compound: Cc1ccc(-n2nc(C(C)(C)C)cc2NC(=O)Nc2ccc(OCCN3CCOCC3)c3ccccc23)cc1 [doramapimod]
Summary of the method: as §1

ispinesib = compound: Cc1ccc(C(=O)N(CCCN)[C@@H](c2nc3cc(Cl)ccc3c(=O)n2Cc2ccccc2)C(C)C)cc1 [ispinesib]
Summary of the method: as §1

duvelisib = compound: C[C@H](Nc1ncnc2nc[nH]c12)c1cc2cccc(Cl)c2c(=O)n1-c1ccccc1 [duvelisib]
Summary of the method: as §1

tozasertib = compound: Cc1cc(Nc2cc(N3CCN(C)CC3)nc(Sc3ccc(NC(=O)C4CC4)cc3)n2)n[nH]1 [tozasertib]
Summary of the method: as §1

Row | Target | log2 fold change [1] | log2 fold change (crizotinib) | log2 fold change [2] | log2 fold change [3] | log2 fold change (gandotinib) | log2 fold change [4] | log2 fold change (doramapimod) | log2 fold change (ispinesib) | log2 fold change (duvelisib) | log2 fold change (tozasertib)
1 | PSMA3 (UniProt P25788) | inactive: 0.011 | inactive: 0.052 | inactive: -0.012 | inactive: -0.117 | inactive: 0.054 | inactive: 0.007 | inactive: 0.018 | inactive: -0.002 |  | 
2 | PSMD3 (UniProt O43242) | inactive: 0.058 | inactive: 0.003 | inactive: -0.003 | inactive: 0.094 | inactive: 0.028 | inactive: 0.047 | inactive: 0.047 | inactive: 0.013 |  | 
3 | PSMB4 (UniProt P28070) | inactive: 0.014 | inactive: 0.03 | inactive: -0.09 | inactive: 0.064 | inactive: 0.08 | inactive: -0.018 | inactive: 0.021 | inactive: 0.015 |  | 
4 | PTPMT1 (UniProt Q8WUK0) | inactive: 0.086 | active: -0.546 | inactive: 0.039 | inactive: -0.026 | inactive: -0.125 | inactive: 0.109 | inactive: -0.036 | active: -0.429 |  | 
5 | QKI (UniProt Q96PU8) | inactive: -0.057 | inactive: 0.075 | inactive: 0.046 | inactive: -0.079 | inactive: -0.093 | inactive: 0.034 | inactive: 0 | inactive: -0.034 |  | 
6 | PSMD11 (UniProt O00231) | inactive: 0.036 | inactive: -0.024 | inactive: -0.035 | inactive: 0.074 | inactive: 0.046 | inactive: 0.07 | inactive: 0.013 | inactive: 0.045 |  | 
7 | PSMD1 (UniProt Q99460) | inactive: -0.009 | inactive: -0.002 | inactive: -0.075 | inactive: 0.047 | inactive: 0 | inactive: 0.017 | inactive: 0.036 | inactive: 0.048 |  | 
8 | PSMD12 (UniProt O00232) | inactive: 0.053 | inactive: 0.009 | inactive: -0.03 | inactive: 0.073 | inactive: 0.029 | inactive: 0.057 | inactive: 0.019 | inactive: 0.003 |  | 
9 | QRICH1 (UniProt Q2TAL8) | inactive: -0.01 | inactive: -0.2 | inactive: 0.07 | inactive: 0.016 |  | inactive: 0.014 | inactive: -0.077 | inactive: 0.006 |  | 
10 | PSMC1 (UniProt P62191) | inactive: 0.011 | inactive: 0.023 | inactive: -0.072 | inactive: 0.073 | inactive: 0.06 | inactive: 0.01 | inactive: 0.033 | inactive: -0.036 |  | 
11 | PTP4A2 (UniProt Q12974) | inactive: -0.001 | inactive: 0.047 | inactive: 0.026 | inactive: -0.01 |  | inactive: 0.05 | inactive: -0.047 | inactive: 0.154 |  | 
12 | PSMC6 (UniProt P62333) | inactive: 0.032 | inactive: 0.022 | inactive: -0.047 | inactive: 0.116 | inactive: 0.054 | inactive: -0.002 | inactive: 0.021 | inactive: 0.007 |  | 
13 | PTRH2 (UniProt Q9Y3E5) | inactive: 0.02 | inactive: 0.081 | inactive: 0.061 | inactive: -0.098 | inactive: -0.02 | inactive: -0.001 | inactive: -0.074 | inactive: 0.181 |  | 
14 | PSMC4 (UniProt P43686) | inactive: 0 | inactive: 0.007 | inactive: -0.056 | inactive: 0.06 | inactive: -0.011 | inactive: 0.001 | inactive: 0.02 | inactive: -0.02 |  | 
15 | PSPC1 (UniProt Q8WXF1) | inactive: -0.068 | inactive: 0.076 | inactive: -0.044 | inactive: 0.088 | inactive: -0.09 | inactive: 0.04 | inactive: -0.028 | inactive: -0.217 |  | 
16 | PSMC2 (UniProt P35998) | inactive: 0.011 | inactive: 0.003 | inactive: -0.087 | inactive: 0.079 | inactive: 0.027 | inactive: 0.014 | inactive: 0.005 | inactive: 0.016 |  | 
17 | PYCARD isoform 2 (UniProt Q9ULZ3) |  | inactive: 0.198 |  |  |  |  | inactive: 0.155 | inactive: -0.11 |  | 
18 | PSMA3 (UniProt H0YJ03) |  | inactive: 0.081 |  | inactive: 0.099 |  | inactive: -0.07 | inactive: 0.072 | inactive: -0.213 |  | 
19 | PVR (UniProt P15151) | inactive: 0.054 |  | inactive: 0.024 | inactive: -0.15 | inactive: -0.078 | inactive: -0.042 |  |  | inactive: 0.039 | inactive: -0.041
20 | PSD2 (UniProt Q9BQI7) | inactive: -0.077 |  | inactive: -0.031 |  |  |  |  | inactive: -0.307 |  | 
21 | PUM2 isoform 3 (UniProt Q8TB72) |  |  |  | inactive: -0.005 |  | inactive: 0.076 |  |  | inactive: -0.022 | 
22 | PTRH1 (UniProt Q86Y79) |  | inactive: -0.014 |  | inactive: 0.229 | inactive: 0.106 | inactive: -0.005 | inactive: -0.042 | inactive: -0.177 | inactive: 0.181 | 
23 | PSIP1 (UniProt V9GYT7) |  | inactive: -0.098 |  | inactive: -0.038 | inactive: 0.18 | inactive: -0.022 | inactive: 0.17 | inactive: -0.008 | inactive: 0.022 | inactive: 0.017
24 | PSMD8 (UniProt K7ERW6) |  | inactive: -0.021 |  |  |  |  | inactive: 0.066 |  |  | 
25 | PYCR1 isoform 3 (UniProt P32322) |  | inactive: 0.022 | inactive: 0.052 | inactive: -0.122 | inactive: 0.154 | inactive: -0.007 | inactive: -0.01 | inactive: 0.054 | inactive: 0 | inactive: 0.018

Some of the entries so far, in CSV form:
Row,Target,log2 fold change [1],log2 fold change (crizotinib),log2 fold change [2],log2 fold change [3],log2 fold change (gandotinib),log2 fold change [4],log2 fold change (doramapimod),log2 fold change (ispinesib),log2 fold change (duvelisib),log2 fold change (tozasertib)
12,PSMC6 (UniProt P62333),inactive: 0.032,inactive: 0.022,inactive: -0.047,inactive: 0.116,inactive: 0.054,inactive: -0.002,inactive: 0.021,inactive: 0.007,,
14,PSMC4 (UniProt P43686),inactive: 0,inactive: 0.007,inactive: -0.056,inactive: 0.06,inactive: -0.011,inactive: 0.001,inactive: 0.02,inactive: -0.02,,

(continued)

Row | Target | log2 fold change [1] | log2 fold change (crizotinib) | log2 fold change [2] | log2 fold change [3] | log2 fold change (gandotinib) | log2 fold change [4] | log2 fold change (doramapimod) | log2 fold change (ispinesib) | log2 fold change (duvelisib) | log2 fold change (tozasertib)
26 | PTS (UniProt Q03393) |  | inactive: -0.112 | inactive: 0.14 | inactive: -0.04 | inactive: 0.003 | inactive: 0.011 | inactive: 0.016 |  | inactive: 0.193 | inactive: 0
27 | PUM1 (UniProt Q14671) |  | inactive: -0.079 |  | inactive: -0.362 | inactive: 0.207 | inactive: 0.203 | inactive: 0.041 |  |  | 
28 | PSEN2 (UniProt P49810) | inactive: 0.105 |  |  |  | inactive: 0.014 | inactive: -0.171 |  | inactive: -0.556 | inactive: 0.128 | 
29 | PSMD8 (UniProt K7EK21) |  |  |  | inactive: 0.485 |  |  |  |  |  | 
30 | PSMC1 (UniProt G3V4X1) |  |  |  | inactive: 0.099 | inactive: 0.066 |  |  |  |  | 
31 | PTEN isoform 2 (UniProt P60484) |  | inactive: 0.077 |  |  | inactive: 0.312 |  | inactive: 0.001 | inactive: 0.024 |  | 
32 | PTPA (UniProt A6PVN8) | inactive: -0.116 |  | inactive: 0.083 | inactive: 0.1 | inactive: -0.048 | inactive: -0.203 |  | inactive: -0.04 |  | 
33 | PUF60 isoform 2 (UniProt Q9UHX1) |  |  |  | inactive: -0.591 |  | inactive: 0.04 |  | inactive: 0.173 |  | 
34 | PTBP2 isoform 3 (UniProt Q9UKA9) | inactive: 0.036 | inactive: -0.296 |  |  | inactive: 0.033 |  | inactive: 0.01 |  |  | 
35 | PTK2B (UniProt Q14289) | inactive: -0.029 |  | inactive: -0.03 | inactive: 0.234 | inactive: -0.03 | inactive: 0.016 |  | inactive: -0.233 |  | 
36 | PTPRJ (UniProt Q12913) | inactive: -0.057 |  | inactive: 0.085 |  |  |  |  |  |  | 
37 | PSMB8 (UniProt P28062) |  | inactive: 0.067 |  | inactive: 0.04 | inactive: 0.126 |  | inactive: 0.007 |  |  | 
38 | PTGER3 isoform 2 (UniProt P43115) |  | inactive: 0 |  |  |  |  | inactive: 0.375 | inactive: 0.168 |  | 
39 | PSD3 (UniProt Q9NYI0) |  | inactive: 0.071 |  | inactive: -0.047 |  |  | inactive: -0.02 | inactive: -0.075 |  | 
40 | PURG (UniProt Q9UJV8) | inactive: -0.195 |  | inactive: -0.277 |  |  |  |  |  |  | 
41 | PUSL1 (UniProt Q8N0Z8) | inactive: -0.064 |  | inactive: -0.24 | inactive: 0.473 | inactive: 0.158 |  |  | inactive: -0.14 |  | inactive: -0.111
42 | PSMB5 isoform 3 (UniProt P28074) | inactive: 0.121 |  | inactive: 0.034 |  |  | inactive: -0.062 |  | inactive: -0.24 | inactive: 0.3 | inactive: -0.296
43 | PRUNE2 isoform 3 (UniProt Q8WUY3) |  | inactive: 0.034 | inactive: -0.053 |  |  | inactive: 0.099 | inactive: -0.12 | inactive: 0.062 | inactive: 0.088 | 
44 | PSMC3IP (UniProt Q9P2W1) |  |  | inactive: 0.122 | inactive: -0.109 | inactive: -0.035 |  |  |  |  | inactive: 0.067
45 | PTPN9 (UniProt P43378) |  |  |  |  | inactive: 0.062 | inactive: 0.058 |  |  | inactive: -0.107 | 
46 | PTPN18 (UniProt Q99952) | inactive: 0.099 | inactive: -0.084 |  |  |  |  | inactive: 0.098 | inactive: 0.183 |  | 
47 | R3HCC1L (UniProt Q7Z5L2) | inactive: 0.096 |  |  | inactive: 0.086 | inactive: -0.097 |  |  |  |  | inactive: -0.187
48 | PSMA3 (UniProt G3V4X5) |  | inactive: -0.277 |  |  |  |  | inactive: 0.149 | inactive: -0.081 |  | 
49 | PYCR1 (UniProt J3QKT4) |  |  | inactive: -0.098 |  | inactive: 0.169 |  |  |  |  | inactive: -0.223
50 | PTPN7 isoform 3 (UniProt P35236) | inactive: 0.235 |  |  | inactive: 0.231 |  |  |  | inactive: -0.014 |  | 
